PubChem BioAssay AID1259254 | NCATS | 2017
Aim: 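Gene knock-downs that lead to re-replication, shown by excess G2 DNA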 (primary screen). Cell system: human HCT116 colorectal cancer cells. Reagents: single siRNA against human genes. Duration: 3 days. Read-out: 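Imaged Hoechst DNA stain sorts each cell into a cycle phase by DNA amount; per plate, G2 fraction set to 0% for non-targeting and 100% for GMNN siRNA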. Reading the numbers: G2 robust z-score and G2 cells, % of GMNN control: higher = more G2 cells, more excess DNA replication; raw share of cells in G2: higher = larger share of cells with G2 DNA content. Active means: 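An siRNA counts as active if its G2 robust z-score lies at least 5 MADs above the screen median; here such calls match roughly 38% of GMNN control or more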.
This is a random part of about 59,000 reagents tested. About 1,550 of them (2.6%) count as active. 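G2 share is only a proxy for re-replication; each gene was hit by three separate siRNAs, and active genes were retested.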 Raw values vary from plate to plate and are shown uncorrected. The numbers tell different reagents against one gene apart. Not stated in the record: the amount of reagent.

| target gene | reagent no. | G2 robust z-score | G2 cells, % of GMNN control | raw share of cells in G2 (%) | Call |
| --- | --- | --- | --- | --- | --- |
| SP7 | 1 | 0.308 | 5.13 | 4.86 | inactive |
| SP7 | 2 | 3.85 | 30.1 | 13.6 | inactive |
| SP7 | 3 | -0.566 | -1.02 | 3.17 | inactive |
| INTS9 | 1 | -0.738 | -2.23 | 3.67 | inactive |
| INTS9 | 2 | -0.804 | -2.69 | 3.02 | inactive |
| INTS9 | 3 | 3.37 | 26.7 | 11.7 | inactive |
| TLR3 | 1 | 0.00737 | 3.02 | 5.55 | inactive |
| TLR3 | 2 | 0.589 | 7.11 | 7.19 | inactive |
| TLR3 | 3 | -0.964 | -3.82 | 3.9 | inactive |
| NDUFB1 | 1 | -1.35 | -6.56 | 1.03 | inactive |
| NDUFB1 | 2 | 0.402 | 5.8 | 7.77 | inactive |
| NDUFB1 | 3 | 2.64 | 21.5 | 13.7 | inactive |
| UGT2A3 | 1 | 0.393 | 5.73 | 6.82 | inactive |
| UGT2A3 | 2 | 2.13 | 18 | 12.2 | inactive |
| UGT2A3 | 3 | 1.36 | 12.6 | 5.81 | inactive |

Continued, starting with the last 3 of the part before.
| target gene | reagent no. | G2 robust z-score | G2 cells, % of GMNN control | raw share of cells in G2 (%) | Call |
| --- | --- | --- | --- | --- | --- |
| UGT2A3 | 1 | 0.393 | 5.73 | 6.82 | inactive |
| UGT2A3 | 2 | 2.13 | 18 | 12.2 | inactive |
| UGT2A3 | 3 | 1.36 | 12.6 | 5.81 | inactive |
| LINC02714 | 1 | 1.59 | 14.1 | 8.6 | inactive |
| LINC02714 | 2 | 0.705 | 7.93 | 5.87 | inactive |
| LINC02714 | 3 | -0.468 | -0.327 | 3.8 | inactive |
| GPANK1 | 1 | 0.408 | 5.84 | 7.72 | inactive |
| GPANK1 | 2 | -1.02 | -4.24 | 2.22 | inactive |
| GPANK1 | 3 | -0.0827 | 2.39 | 4.19 | inactive |
| C14orf180 | 1 | 2.1 | 17.8 | 10.3 | inactive |
| C14orf180 | 2 | -0.0588 | 2.55 | 4.53 | inactive |
| C14orf180 | 3 | 1.8 | 15.6 | 11.3 | inactive |
| UQCRHL | 1 | -0.746 | -2.28 | 2.74 | inactive |
| UQCRHL | 2 | -0.701 | -1.97 | 2.67 | inactive |
| UQCRHL | 3 | 0.0512 | 3.33 | 4.25 | inactive |
| NXPE3 | 1 | 6.02 | 45.3 | 23.3 | active |
| NXPE3 | 2 | -0.291 | 0.923 | 3.29 | inactive |
| NXPE3 | 3 | 0.965 | 9.76 | 6.02 | inactive |
